According to PMC12432198:
Results are given in words; binding and its absence hold for the method and conditions named. Binding seen in cells or lysates may run through a third protein. Here binding means that the protein was enriched with, or labelled near, the bait; the list need not be complete. Tags and fused reporters may be left off the sequences shown.

Amino acid sequences for entries named in this document (tags omitted).
UniProt Q09472: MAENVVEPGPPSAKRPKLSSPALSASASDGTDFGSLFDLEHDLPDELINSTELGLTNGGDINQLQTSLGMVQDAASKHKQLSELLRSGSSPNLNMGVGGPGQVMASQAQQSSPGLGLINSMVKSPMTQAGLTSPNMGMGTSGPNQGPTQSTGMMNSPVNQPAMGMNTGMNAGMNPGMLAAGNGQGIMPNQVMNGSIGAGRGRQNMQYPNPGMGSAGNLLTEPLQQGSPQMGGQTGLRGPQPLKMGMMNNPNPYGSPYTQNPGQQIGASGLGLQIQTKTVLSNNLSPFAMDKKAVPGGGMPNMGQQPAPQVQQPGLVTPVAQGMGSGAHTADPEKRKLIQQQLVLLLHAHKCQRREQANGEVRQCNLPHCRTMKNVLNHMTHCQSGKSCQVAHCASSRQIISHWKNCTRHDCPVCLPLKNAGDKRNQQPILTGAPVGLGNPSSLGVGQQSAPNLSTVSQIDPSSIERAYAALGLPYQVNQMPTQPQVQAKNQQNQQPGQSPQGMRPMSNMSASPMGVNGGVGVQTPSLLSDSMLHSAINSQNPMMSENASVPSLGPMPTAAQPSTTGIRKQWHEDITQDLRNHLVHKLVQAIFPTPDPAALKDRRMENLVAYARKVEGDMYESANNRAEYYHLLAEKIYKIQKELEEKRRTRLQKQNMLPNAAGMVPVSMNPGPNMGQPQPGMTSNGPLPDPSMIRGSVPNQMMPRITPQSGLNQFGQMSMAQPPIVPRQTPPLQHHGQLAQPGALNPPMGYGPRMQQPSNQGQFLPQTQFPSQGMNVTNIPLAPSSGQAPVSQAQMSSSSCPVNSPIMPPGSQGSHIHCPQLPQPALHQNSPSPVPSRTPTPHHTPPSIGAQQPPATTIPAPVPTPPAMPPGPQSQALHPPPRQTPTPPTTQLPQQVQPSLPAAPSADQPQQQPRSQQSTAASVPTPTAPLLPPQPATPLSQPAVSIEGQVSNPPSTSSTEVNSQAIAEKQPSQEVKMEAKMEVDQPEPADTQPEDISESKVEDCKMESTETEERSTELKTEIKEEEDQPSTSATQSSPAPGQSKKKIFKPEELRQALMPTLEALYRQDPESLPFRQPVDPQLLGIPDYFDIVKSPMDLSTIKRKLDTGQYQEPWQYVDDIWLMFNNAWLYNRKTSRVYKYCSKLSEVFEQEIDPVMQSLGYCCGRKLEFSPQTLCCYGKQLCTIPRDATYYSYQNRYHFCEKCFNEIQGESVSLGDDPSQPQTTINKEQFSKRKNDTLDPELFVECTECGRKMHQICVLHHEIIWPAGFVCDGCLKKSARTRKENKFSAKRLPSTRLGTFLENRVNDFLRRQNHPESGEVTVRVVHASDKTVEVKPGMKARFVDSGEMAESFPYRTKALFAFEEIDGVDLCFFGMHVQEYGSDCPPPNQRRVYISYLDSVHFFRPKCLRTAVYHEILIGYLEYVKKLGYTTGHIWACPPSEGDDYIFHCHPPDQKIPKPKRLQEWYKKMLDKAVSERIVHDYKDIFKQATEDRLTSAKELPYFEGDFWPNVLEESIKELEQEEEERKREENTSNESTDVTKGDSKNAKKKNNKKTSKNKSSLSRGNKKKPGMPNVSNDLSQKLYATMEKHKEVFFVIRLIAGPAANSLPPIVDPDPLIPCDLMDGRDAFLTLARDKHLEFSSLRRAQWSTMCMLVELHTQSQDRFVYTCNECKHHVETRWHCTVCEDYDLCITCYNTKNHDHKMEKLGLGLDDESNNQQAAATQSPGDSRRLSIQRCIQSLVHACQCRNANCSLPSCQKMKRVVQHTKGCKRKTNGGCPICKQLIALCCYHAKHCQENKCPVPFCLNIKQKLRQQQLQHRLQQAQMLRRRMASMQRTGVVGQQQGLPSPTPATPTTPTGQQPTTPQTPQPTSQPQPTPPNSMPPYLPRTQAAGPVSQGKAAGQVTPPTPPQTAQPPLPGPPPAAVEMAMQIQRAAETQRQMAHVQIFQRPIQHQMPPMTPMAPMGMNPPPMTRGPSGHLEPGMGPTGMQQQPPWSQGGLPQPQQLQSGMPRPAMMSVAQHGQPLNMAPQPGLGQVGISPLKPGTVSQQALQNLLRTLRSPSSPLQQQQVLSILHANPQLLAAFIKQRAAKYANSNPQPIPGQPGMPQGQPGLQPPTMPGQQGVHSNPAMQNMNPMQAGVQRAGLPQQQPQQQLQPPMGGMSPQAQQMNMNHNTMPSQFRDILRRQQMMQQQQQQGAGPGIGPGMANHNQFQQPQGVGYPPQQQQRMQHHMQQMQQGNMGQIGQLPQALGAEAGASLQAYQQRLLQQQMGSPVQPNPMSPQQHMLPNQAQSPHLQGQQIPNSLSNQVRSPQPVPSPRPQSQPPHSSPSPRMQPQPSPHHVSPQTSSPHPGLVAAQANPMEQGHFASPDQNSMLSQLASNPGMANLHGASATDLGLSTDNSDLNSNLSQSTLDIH

Molecular target: T1, Flag-GCLC ectopically expressed in Huh7 cells (human) (UniProt P48506)
T1 sequence: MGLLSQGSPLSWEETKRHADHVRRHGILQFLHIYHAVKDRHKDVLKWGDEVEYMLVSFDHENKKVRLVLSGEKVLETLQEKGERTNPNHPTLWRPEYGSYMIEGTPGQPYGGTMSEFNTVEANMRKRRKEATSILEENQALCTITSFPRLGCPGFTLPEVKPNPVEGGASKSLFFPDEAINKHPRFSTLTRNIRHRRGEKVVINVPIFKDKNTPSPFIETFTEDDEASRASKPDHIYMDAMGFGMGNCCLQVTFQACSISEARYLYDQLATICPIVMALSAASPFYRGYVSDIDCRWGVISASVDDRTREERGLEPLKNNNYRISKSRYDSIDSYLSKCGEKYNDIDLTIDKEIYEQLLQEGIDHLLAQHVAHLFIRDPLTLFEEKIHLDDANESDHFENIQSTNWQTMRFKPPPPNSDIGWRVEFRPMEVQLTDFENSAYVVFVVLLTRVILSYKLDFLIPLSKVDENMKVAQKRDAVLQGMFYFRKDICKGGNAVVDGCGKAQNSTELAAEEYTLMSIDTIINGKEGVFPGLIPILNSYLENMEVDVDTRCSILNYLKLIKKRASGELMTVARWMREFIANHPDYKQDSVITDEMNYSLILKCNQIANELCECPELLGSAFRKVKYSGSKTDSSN
Assay: affinity purification with mass spectrometry; tandem affinity purification coupled with mass spectrometry on lysates of Huh7 cells ectopically expressing Flag-GCLC

For “histone acetyltransferase P300 (found with Flag-GCLC in Huh7 lysates) (from UniProt Q09472 1-2414) (enzyme)”, the binding was “binds”.
